Measured values as given in the supplement of paper PMC8616043.
Counter-ions that a name gives are not always drawn. Some of the results follow. Single values are uncertain here, since repeats match poorly.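 The cells are human U-2 OS cells that stably carry a GFP sensor with a nuclear import signal and a classical export signal. They were transfected to make PR50, a 50-repeat proline–arginine dipeptide protein from the ALS/FTD gene C9ORF72. Each well's nuclear-minus-cytoplasm GFP signal was scaled from in-plate DMSO (low) to PR-only wells (high), then scored against the other test wells on the plate; compounds scoring well below zero were called hits that reverse the PR effect.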

system: U-2 OS NCT-C biosensor cells expressing PR50; experiment: Z-score of normalised NCT-C biosensor translocation index in PR50-expressing cells; higher = more nuclear biosensor (more disrupted nuclear export); settings: 3 µM; 24 h

SMILES	Z-score
C[C@@H]1O[C@@H](O[C@H]2[C@H](Oc3cc(O)c4c(c3)O[C@H](c3ccc(O)cc3)CC4=O)O[C@H](CO)[C@@H](O)[C@@H]2O)[C@H](O)[C@H](O)[C@H]1O [Naringin]	inactive: -0.446
O=C1CC(c2ccc(O)cc2)Oc2cc(O[C@@H]3O[C@H](CO)[C@@H](O)[C@H](O)[C@H]3O)cc(O)c21 (some centres undefined) [Naringenin-7-O-glucoside]	inactive: -0.0673
N[C@@H](CC(=O)N1CCn2c(nnc2C(F)(F)F)C1)Cc1cc(F)c(F)cc1F [Sitagliptin Phosphate]	inactive: -0.603
OC[C@H]1O[C@@H](O[C@@H]2OC=C[C@H]3[C@H](O)[C@@H]4O[C@]4(CO)[C@@H]23)[C@H](O)[C@@H](O)[C@@H]1O [Catalpol]	inactive: -1.11
Nc1c(S(=O)(=O)O)cc(Nc2ccc(Nc3nc(Cl)nc(Nc4cccc(S(=O)(=O)O)c4)n3)c(S(=O)(=O)O)c2)c2c1C(=O)c1ccccc1C2=O [Reactive Blue 2]	inactive: -0.775
c1ccc(CN2CCC3(CCCc4ccccc43)CC2)cc1 [L-687,384  hydrochloride]	inactive: 0.77
CNCC[C@@H](Oc1ccccc1C)c1ccccc1 [Tomoxetine hydrochloride]	inactive: -0.0382
CNCC[C@@H](Oc1ccccc1C)c1ccccc1 [Atomoxetine·HCl]	inactive: -0.123
COCCCOc1ccnc(C[S+]([O-])c2nc3ccccc3[nH]2)c1C (centres undefined) [Rabeprazole sodium]	inactive: 0.409
COCCCOc1ccnc(C[S+]([O-])c2nc3ccccc3[nH]2)c1C (centres undefined) [Rabeprazole·Na]	inactive: -0.078
CC(=O)/N=c1/sc(S(N)(=O)=O)nn1C [Methazolamide]	inactive: -0.732
CC1=CC(=O)c2ccccc2C1=O [Menadione]	inactive: -1.06
N=C(N)N1CCc2ccccc2C1 [Debrisoquin sulfate]	inactive: -0.299
O=C(O)Cc1ccc(O)c(O)c1 [3,4-Dihydroxyphenylacetic acid]	inactive: -0.578
CCCc1nc2c(C)cc(-c3nc4ccccc4n3C)cc2n1Cc1ccc(-c2ccccc2C(=O)O)cc1 [Telmisartan]	inactive: 0.351
CCCCC1C(=O)N(c2ccccc2)N(c2ccccc2)C1=O [Phenylbutazone]	inactive: -0.9
N=C(N)SCCN [2-(2-Aminoethyl) isothiourea diHBr]	inactive: 0.144
Clc1ccc(COC(Cn2ccnc2)c2ccc(Cl)cc2Cl)cc1 (centres undefined) [Econazole Nitrate]	inactive: -0.136
C[C@]12CC[C@@H]3c4ccc(O)cc4CC[C@H]3[C@@H]1[C@@H](O)[C@@H](O)[C@@H]2O [Estetrol]	inactive: 0.756
Clc1ccccc1C(c1ccccc1)(c1ccccc1)n1ccnc1 [Clotrimazole]	inactive: 0.0289
NC(=O)NO [Hydroxyurea]	inactive: 0.0476
CO/N=C1\CN(c2nc3c(cc2F)c(=O)c(C(=O)O)cn3C2CC2)CC1CN (centres undefined) [Gemifloxacin mesylate]	inactive: -0.12
CO/N=C1\CN(c2nc3c(cc2F)c(=O)c(C(=O)O)cn3C2CC2)CC1CN (centres undefined) [Gemifloxacin]	inactive: 1.54

Copied from the list:
Z-score, CNCC[C@@H](Oc1ccccc1C)c1ccccc1 [Atomoxetine·HCl] reads inactive: -0.123
Z-score, c1ccc(CN2CCC3(CCCc4ccccc43)CC2)cc1 [L-687,384  hydrochloride] reads inactive: 0.77
Z-score, CC1=CC(=O)c2ccccc2C1=O [Menadione] reads inactive: -1.06

(next part)

SMILES	Z-score
Cc1ncc(-c2c[nH]c3ccccc23)o1 [Pimprinine]	inactive: -0.742
COc1cc2c(cc1OC)[C@H]1[C@@H](C)c3ccc(OC)c(OC)c3CN1CC2 [Corydaline]	inactive: -0.427
CN1CCC[C@H]1c1cccnc1 [Nicotine]	inactive: -0.0818
CN1CCC[C@H]1c1cccnc1 [(-)-Nicotine]	inactive: -0.291
CCCC(C(=O)OCCN(CC)CC)(c1ccccc1)c1ccccc1 [SKF-525A  hydrochloride]	inactive: -0.978
CC(C)(C)c1ccc(S(=O)(=O)NCc2ccc(C(=O)Nc3cccnc3)cc2)cc1	inactive: -1.3
CC(C)=CCC/C(C)=C/COc1ccc2ccc(=O)oc2c1 [Auraptene]	inactive: -0.547
COc1cc(CC(=O)O)ccc1O [4-Hydroxy-3- methoxy phenylacetic acid]	inactive: -0.167
CCCCC#Cc1nc(NC)c2ncn([C@@H]3O[C@H](CO)[C@@H](O)[C@H]3O)c2n1	inactive: 0.362
N[C@@H](Cc1ccc(F)cc1)C(=O)O [p-Fluoro-L- phenylalanine]	inactive: -0.958
CC[C@]1(O)C[C@@H]2CN(CCc3c([nH]c4ccccc34)[C@@](C(=O)OC)(c3cc4c(cc3OC)N(C)[C@H]3[C@@](O)(C(=O)OC)[C@H](OC(C)=O)[C@]5(CC)C=CCN6CC[C@]43[C@@H]65)C2)C1 [Vinblastine Sulfate]	inactive: 1.74
C[C@H]1CC[C@@H](C(C)(C)O)CC2=C1CC[C@@H]2C [(-)-Guaiol]	inactive: -0.547
CCC(C)CNCC(=O)N1CCc2sccc2C1COc1cccc(C)c1 (centres undefined) [RU-SKI 43  maleate]	inactive: -1.09
COC1=C(OC)C(=O)c2ccccc2C1=O [2,3-Dimethoxy-1,4- naphthoquinone]	inactive: -0.00462
COc1ccc(/C=C2\COc3ccc(C)cc3C2=O)cc1O	inactive: -0.44
CN(C)CCC(c1ccccc1)c1ccccn1 (centres undefined) [Pheniramine maleate]	inactive: -0.555
Cc1c(O)cccc1C(=O)N[C@@H](CSc1ccccc1)[C@H](O)CN1C[C@H]2CCCC[C@H]2C[C@H]1C(=O)NC(C)(C)C [Nelfinavir Mesylate]	inactive: -0.322
Nc1nc(=O)c2c([nH]1)NCC(CNc1ccc(C(=O)N[C@@H](CCC(=O)O)C(=O)O)cc1)N2C=O (some centres undefined) [Leucovorin Calcium Pentahydrate]	inactive: -0.971
CN(C)C(=O)N=NC(=O)N(C)C [N,N,N',N'-  Tetramethylazodic arboxamide]	inactive: 0.729
C=CCc1ccccc1OCC(O)CNC(C)C (centres undefined) [Alprenolol hydrochloride]	inactive: 0.109
NC[C@H]1CC[C@H](C(=O)O)CC1 [Tranexamic Acid]	inactive: -0.314
CC(=O)OC(C)C[N+](C)(C)C (stereo not drawn) [Acetyl-beta- methylcholine chloride]	inactive: 0.197
CC(=O)OC(C)C[N+](C)(C)C (centres undefined) [Methacholine Chloride]	inactive: 0.14

SMILES	Z-score
CCCCC[C@H](CC(=O)NO)C(=O)N[C@H](C(=O)N1CCC[C@H]1CO)C(C)C [Actinonin]	inactive: 0.736
Cc1nc(N=Nc2ccc(S(=O)(=O)O)cc2S(=O)(=O)O)c(COP(=O)(O)O)c(C=O)c1O	inactive: -0.7
Cc1ccc(O)c([C@H](CCN(C(C)C)C(C)C)c2ccccc2)c1 [Tolterodine Tartrate]	inactive: -0.0508
COc1cc2c(NC3CCN(C4CCCCC4)CC3)nc(N3CCCN(C(C)C)CC3)nc2cc1OCCCN1CCCCC1	inactive: -0.405
CCN1CCCC1CNC(=O)c1cc(S(N)(=O)=O)ccc1OC (racemic) [(±)-Sulpiride]	inactive: 1.78
O=C(O)c1cc(=O)c2c(OCC(O)COc3cccc4oc(C(=O)O)cc(=O)c34)cccc2o1 [Cromolyn·Na (Disodium Cromoglycate)]	inactive: 1.2
CC[C@]12CCCN3CCc4c(n(c5ccccc45)[C@@](O)(C(=O)OC)C1)[C@@H]32 [Vincamine]	inactive: 0.566
CCOC(=O)c1ccc(C#Cc2ccc3c(c2)C(C)(C)CCS3)nc1 [Tazarotene]	inactive: -0.104
CC(C)N(CCC(=O)c1ccc2ccccc2c1)Cc1ccccc1	inactive: -0.807
O=c1cc(O)cc(/C=C/c2ccc(O)c(O)c2)o1 [Hispidin]	inactive: 0.12
COc1c(O)cc(O)c2c(=O)cc(-c3ccccc3)oc12 [Wogonin]	inactive: -0.411
CCN1CCC[C@H]1CNC(=O)c1cc(S(N)(=O)=O)ccc1OC [(S)-(-)-Sulpiride]	inactive: -0.69
Nc1ccc(S(N)(=O)=O)cc1 [Sulfanilamide]	inactive: -0.236
CCOc1nc2cccc(C(=O)OC(C)OC(=O)OC3CCCCC3)c2n1Cc1ccc(-c2ccccc2-c2nn[nH]n2)cc1 (centres undefined) [Candesartan cilexetil]	inactive: 1.52
COc1ccc(-c2oc3c(CC=C(C)C)c(O)cc(O)c3c(=O)c2O)cc1 [Icaritin]	inactive: 0.281
N[C@@H](CCC(=O)N[C@@H](CSN=O)C(=O)NCC(=O)O)C(=O)O [S-Nitroso glutathione]	inactive: -0.173
CC(CCc1ccc(O)cc1)NCCc1ccc(O)c(O)c1 (centres undefined) [Dobutamine hydrochloride]	inactive: -0.8
CC(CCc1ccc(O)cc1)NCCc1ccc(O)c(O)c1 (centres undefined) [Dobutamine·HCl]	inactive: -0.0787
CC1=C(C(=O)O)N2C(=O)[C@@H](NC(=O)[C@H](N)c3ccc(O)cc3)[C@H]2SC1 [Cefadroxil Monohydrate]	inactive: -0.125
CC(C)(Oc1ccc(C2CC2(Cl)Cl)cc1)C(=O)O (centres undefined) [Ciprofibrate]	inactive: 1.77
Cn1c(=O)c2c(ncn2CC(O)CO)n(C)c1=O (centres undefined) [Dyphylline]	inactive: -0.486
NC(=O)c1cccnc1 [Nicotinamide]	inactive: -0.383
COc1cccc(OC)c1-c1cc(C(=O)NC2(C(=O)O)C3CC4CC(C3)CC2C4)nn1-c1ccc(C(=O)N(C)CCCN(C)C)cc1C(C)C (centres undefined)	inactive: -0.0485

Some of the entries above, set out differently.
CC1=C(C(=O)O)N2C(=O)[C@@H](NC(=O)[C@H](N)c3ccc(O)cc3)[C@H]2SC1 [Cefadroxil Monohydrate]
  Z-score: inactive: -0.125
CC(C)(Oc1ccc(C2CC2(Cl)Cl)cc1)C(=O)O (centres undefined) [Ciprofibrate]
  Z-score: inactive: 1.77
